Source: publication doi:10.1101/2024.05.31.596839
Results are given in words; binding and its absence hold for the method and conditions named. Tags and fused reporters may be left off the sequences shown.

What was measured:
Experiment in all cases: ReLo
Settings in all cases: remark: other sources report otherwise
[1] = target: T1, SoYb (Drosophila), Q9VL52
T1 chain: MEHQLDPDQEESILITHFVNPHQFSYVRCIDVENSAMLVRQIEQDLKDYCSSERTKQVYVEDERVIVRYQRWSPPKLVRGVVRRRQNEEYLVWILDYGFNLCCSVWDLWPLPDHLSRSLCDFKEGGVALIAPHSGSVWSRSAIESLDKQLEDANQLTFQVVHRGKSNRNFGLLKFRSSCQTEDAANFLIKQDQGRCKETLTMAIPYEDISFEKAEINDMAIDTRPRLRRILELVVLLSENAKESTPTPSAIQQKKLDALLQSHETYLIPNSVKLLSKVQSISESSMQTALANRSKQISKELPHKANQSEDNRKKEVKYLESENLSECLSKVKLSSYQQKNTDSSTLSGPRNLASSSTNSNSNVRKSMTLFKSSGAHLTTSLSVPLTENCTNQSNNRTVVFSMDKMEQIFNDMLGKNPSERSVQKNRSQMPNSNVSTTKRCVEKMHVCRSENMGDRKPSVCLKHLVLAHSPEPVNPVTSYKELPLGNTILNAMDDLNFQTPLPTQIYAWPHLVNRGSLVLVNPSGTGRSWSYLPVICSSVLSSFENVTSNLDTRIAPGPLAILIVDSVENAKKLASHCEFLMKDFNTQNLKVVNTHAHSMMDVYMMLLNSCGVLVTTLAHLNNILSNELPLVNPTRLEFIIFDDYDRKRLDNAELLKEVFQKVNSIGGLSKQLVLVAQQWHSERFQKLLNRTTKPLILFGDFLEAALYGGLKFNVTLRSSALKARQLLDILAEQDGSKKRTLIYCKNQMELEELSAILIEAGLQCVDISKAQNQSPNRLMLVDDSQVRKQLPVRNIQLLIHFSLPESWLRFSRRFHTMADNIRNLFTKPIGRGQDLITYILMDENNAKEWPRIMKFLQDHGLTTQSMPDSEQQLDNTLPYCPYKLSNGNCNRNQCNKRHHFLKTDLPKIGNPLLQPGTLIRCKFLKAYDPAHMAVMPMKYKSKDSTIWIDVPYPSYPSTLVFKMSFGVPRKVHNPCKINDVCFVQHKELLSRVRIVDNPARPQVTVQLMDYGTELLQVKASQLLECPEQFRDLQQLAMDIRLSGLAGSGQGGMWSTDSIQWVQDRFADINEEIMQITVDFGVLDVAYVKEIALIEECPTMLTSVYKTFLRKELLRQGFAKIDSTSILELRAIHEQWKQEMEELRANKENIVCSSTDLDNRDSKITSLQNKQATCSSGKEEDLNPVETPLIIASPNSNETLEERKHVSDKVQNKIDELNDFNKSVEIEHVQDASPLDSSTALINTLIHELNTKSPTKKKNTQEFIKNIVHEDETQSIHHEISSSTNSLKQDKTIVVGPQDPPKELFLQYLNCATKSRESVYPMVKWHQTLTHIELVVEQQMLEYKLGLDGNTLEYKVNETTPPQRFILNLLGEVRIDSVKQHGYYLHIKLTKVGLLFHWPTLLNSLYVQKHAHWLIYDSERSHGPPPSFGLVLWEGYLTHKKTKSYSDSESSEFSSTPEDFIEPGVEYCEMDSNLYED

[2] = target: T2, Argonaute 3 (Drosophila), Q7PLK0
T2 chain: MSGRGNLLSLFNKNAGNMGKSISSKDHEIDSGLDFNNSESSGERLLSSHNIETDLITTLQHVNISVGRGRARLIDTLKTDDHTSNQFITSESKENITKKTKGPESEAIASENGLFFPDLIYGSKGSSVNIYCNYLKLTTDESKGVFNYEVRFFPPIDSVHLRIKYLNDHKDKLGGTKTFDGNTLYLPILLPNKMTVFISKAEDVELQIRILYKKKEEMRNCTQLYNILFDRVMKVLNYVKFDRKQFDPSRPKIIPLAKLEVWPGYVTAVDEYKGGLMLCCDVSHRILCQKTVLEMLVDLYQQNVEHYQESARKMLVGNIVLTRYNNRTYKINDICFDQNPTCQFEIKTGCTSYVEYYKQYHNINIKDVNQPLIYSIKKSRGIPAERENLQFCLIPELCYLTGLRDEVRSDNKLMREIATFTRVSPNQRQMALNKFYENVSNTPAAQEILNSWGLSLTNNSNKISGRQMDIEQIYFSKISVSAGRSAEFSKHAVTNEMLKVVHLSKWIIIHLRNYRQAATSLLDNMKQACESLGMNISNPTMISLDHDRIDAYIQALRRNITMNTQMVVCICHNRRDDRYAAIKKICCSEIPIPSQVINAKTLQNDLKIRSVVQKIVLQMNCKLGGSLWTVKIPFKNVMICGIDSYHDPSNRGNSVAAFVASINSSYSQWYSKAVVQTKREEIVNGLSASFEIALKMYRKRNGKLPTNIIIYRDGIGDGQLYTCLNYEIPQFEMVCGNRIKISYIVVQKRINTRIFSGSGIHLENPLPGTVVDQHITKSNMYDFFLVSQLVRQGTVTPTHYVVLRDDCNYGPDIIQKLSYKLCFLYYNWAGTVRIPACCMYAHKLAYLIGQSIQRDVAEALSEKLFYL

[3] = target: T3, Piwi (Drosophila), Q9VKM1
T3 chain: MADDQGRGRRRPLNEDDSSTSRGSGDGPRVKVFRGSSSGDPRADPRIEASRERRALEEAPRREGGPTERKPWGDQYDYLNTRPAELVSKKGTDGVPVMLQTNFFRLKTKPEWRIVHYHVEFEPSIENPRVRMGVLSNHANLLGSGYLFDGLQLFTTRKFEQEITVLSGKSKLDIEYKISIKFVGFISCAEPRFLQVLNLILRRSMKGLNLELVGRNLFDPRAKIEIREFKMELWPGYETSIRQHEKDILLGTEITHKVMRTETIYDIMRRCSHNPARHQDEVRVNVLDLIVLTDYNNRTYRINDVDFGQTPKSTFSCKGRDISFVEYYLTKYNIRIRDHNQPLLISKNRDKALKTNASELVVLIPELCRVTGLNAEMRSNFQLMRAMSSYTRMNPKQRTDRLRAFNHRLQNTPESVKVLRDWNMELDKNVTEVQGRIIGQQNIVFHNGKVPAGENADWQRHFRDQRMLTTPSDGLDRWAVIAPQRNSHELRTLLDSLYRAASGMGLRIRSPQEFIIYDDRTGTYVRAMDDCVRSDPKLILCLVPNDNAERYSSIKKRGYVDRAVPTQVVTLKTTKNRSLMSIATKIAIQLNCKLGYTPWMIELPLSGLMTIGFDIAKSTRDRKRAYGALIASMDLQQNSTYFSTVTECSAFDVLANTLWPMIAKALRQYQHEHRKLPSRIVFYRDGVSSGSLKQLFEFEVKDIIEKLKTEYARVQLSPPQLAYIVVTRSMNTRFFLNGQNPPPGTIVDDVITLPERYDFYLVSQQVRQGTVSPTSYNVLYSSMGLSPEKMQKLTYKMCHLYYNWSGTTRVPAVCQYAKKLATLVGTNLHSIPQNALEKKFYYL

binding [1]: no binding | binding [2]: no binding | binding [3]: no binding
B1: Armitage, Q6J5K9 1-1188 (protein)
chain: MFTYVSKFFTNPDRNREDILESLDRENSFLDQKLMEEKMDQQLKANPNEINGVLSNKIAELTHGLSEMDVSKESSCTARKGVITSLDGDRGVIDKDVLFETKVAEDIILDLHVGCVVEYLTFTTGEAMRVVKVKSILEHSWEDTSQKEIEKAVDNLKNEKPTFFNTETRSVLGLISQRLASSIDVETEYGQLTVELDNIEMNFIPTNGDRVRLECNIQLDDGFVDKQGEILEVTKLFPTRIQEGEKCIVERVYVHMVVLGPETYILKTDLPTGTDLHLGDIVLADLIECQYSKFTRRAIKITPLEKNFGATKLTQQSSMGSSGSGKAVTVTGVNRFITAELWQKESVSLKLTNNLNRTLRLESITVCNDSESQLSVVSPLESKEISSGSEITVTFEIHTQFLGEAIEKYVLNFDLLKVRRVFTVIVCKTKEEVAEAEKRMIAAEALMAPGRNSQERSRFYANQVWCNKVDVIPGQQIVTKRRFVALRLGCFEVPKELRQICLTSERRQEMIKAIEQHYSFLTEPLSIKTYMHRFRLLLHLEEIECFVNFRNYDRDRAHFLRDGEFLTLQIENLAERRPSLVIGDTLRVINPWSDPDSQTTKSYEGIIHKVLFDRILLKFHSSFQEKYNGEDYRLEFYFSRYSFRKQHHAISKIVGVMGEDFLFPSKVTKRENPQLDVYMKDDDMYLYDSKLEWYNQSLNSIQKRAVFNILRGEAENIPYVLFGPPGSGKTMTLIETLLQLVRNLPGARILVGTPSNSSADLVTKRLIDSKALLQGDFIRLVSYNQVEKDLIPPEIMSYCATSDVGAVGSCEDKMMVTESGLKLRCQAKFIGTHRITISTCTTLGNFLQLGFPAGHFTHVLFDEAGQCTEPETMVPIVMLTKKRSQVVLSGDPRQLQSIVTSRIASKMGFSISFLERLLERSPYRKDLQRFPESSGYNPLVLTKLLYNYRALPSIMSIYSRLFYDDELIPVLSEKDSRESRLLSKLRCVFESEKDIPQAHGTFFYGIIGENRQNNDSPSWFNPQEVREVFLMTIALYRANVTADQIGIITPYQKQVKMLRSMFIGTDVVMPKIGSVEEFQGQERDIILISTVRSSEEILRMDARFSLGFVRCSKRLNVAVSRARAMMIIFGNPHLLAVDECWRQLILFCVKNNAYFGCDLPQMVINQKDEVPVCLETFVPSLNTTDDLN
